# Assay results taken from the supplement of paper PMC10849652.
# The chains behind the UniProt entries cited, without tags or fusion partners. Where a name states a change or a piece, a line headed by the entry shows the natural chain unless it says otherwise.
# UniProt Q86WJ1: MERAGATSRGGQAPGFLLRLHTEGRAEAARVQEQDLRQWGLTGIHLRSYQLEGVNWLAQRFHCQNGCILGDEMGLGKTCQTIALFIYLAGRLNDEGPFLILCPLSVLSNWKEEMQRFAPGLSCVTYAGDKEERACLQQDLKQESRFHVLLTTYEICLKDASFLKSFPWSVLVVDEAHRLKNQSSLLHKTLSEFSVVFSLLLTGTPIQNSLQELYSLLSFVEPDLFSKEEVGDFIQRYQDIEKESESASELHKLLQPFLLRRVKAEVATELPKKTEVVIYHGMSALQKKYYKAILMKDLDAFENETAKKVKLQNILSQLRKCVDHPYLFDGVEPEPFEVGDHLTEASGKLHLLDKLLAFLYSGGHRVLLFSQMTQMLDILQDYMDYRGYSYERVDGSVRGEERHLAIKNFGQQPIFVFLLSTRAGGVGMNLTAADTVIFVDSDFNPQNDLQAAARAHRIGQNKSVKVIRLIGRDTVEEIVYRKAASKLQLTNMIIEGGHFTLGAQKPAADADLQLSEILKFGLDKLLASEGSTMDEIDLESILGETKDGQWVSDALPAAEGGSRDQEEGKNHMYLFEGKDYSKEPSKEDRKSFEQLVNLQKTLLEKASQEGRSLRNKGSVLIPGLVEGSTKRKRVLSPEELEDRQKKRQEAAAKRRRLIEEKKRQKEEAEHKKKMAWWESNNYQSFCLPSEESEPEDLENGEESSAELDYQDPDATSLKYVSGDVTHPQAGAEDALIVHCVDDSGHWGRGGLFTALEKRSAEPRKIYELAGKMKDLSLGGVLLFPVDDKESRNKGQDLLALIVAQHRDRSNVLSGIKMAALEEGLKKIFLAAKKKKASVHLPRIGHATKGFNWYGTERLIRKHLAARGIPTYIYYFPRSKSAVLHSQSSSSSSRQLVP
# UniProt P51790: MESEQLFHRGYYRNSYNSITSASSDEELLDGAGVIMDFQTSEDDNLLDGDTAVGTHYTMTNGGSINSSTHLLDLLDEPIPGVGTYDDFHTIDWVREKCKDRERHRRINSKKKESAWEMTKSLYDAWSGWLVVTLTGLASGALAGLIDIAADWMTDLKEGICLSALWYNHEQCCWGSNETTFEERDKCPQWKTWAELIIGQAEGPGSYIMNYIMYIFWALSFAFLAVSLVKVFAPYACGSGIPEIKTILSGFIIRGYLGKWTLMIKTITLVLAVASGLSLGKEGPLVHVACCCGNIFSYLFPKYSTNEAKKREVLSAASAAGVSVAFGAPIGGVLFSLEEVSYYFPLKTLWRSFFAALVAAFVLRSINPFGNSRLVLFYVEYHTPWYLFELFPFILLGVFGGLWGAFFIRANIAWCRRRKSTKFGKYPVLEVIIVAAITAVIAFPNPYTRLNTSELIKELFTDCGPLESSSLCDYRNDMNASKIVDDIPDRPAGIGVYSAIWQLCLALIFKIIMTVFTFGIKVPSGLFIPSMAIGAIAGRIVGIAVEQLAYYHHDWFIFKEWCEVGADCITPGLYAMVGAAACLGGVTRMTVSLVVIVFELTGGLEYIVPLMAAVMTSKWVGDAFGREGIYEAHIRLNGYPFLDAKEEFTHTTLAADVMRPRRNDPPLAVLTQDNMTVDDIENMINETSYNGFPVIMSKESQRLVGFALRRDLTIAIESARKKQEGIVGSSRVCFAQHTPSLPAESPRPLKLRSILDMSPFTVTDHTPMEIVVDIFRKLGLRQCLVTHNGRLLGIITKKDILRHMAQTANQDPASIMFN
# UniProt Q8NFW8: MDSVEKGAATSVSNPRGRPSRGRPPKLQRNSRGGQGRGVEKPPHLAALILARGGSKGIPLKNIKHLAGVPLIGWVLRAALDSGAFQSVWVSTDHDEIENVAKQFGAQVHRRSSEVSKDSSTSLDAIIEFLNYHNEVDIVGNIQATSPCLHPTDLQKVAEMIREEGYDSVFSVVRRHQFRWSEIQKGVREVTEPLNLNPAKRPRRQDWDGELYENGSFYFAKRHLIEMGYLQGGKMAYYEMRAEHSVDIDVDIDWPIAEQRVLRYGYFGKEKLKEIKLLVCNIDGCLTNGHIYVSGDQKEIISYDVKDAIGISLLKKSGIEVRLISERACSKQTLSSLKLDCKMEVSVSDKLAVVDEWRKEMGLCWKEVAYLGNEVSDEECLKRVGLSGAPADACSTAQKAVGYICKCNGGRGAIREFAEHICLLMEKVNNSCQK
# UniProt Q2KHT3: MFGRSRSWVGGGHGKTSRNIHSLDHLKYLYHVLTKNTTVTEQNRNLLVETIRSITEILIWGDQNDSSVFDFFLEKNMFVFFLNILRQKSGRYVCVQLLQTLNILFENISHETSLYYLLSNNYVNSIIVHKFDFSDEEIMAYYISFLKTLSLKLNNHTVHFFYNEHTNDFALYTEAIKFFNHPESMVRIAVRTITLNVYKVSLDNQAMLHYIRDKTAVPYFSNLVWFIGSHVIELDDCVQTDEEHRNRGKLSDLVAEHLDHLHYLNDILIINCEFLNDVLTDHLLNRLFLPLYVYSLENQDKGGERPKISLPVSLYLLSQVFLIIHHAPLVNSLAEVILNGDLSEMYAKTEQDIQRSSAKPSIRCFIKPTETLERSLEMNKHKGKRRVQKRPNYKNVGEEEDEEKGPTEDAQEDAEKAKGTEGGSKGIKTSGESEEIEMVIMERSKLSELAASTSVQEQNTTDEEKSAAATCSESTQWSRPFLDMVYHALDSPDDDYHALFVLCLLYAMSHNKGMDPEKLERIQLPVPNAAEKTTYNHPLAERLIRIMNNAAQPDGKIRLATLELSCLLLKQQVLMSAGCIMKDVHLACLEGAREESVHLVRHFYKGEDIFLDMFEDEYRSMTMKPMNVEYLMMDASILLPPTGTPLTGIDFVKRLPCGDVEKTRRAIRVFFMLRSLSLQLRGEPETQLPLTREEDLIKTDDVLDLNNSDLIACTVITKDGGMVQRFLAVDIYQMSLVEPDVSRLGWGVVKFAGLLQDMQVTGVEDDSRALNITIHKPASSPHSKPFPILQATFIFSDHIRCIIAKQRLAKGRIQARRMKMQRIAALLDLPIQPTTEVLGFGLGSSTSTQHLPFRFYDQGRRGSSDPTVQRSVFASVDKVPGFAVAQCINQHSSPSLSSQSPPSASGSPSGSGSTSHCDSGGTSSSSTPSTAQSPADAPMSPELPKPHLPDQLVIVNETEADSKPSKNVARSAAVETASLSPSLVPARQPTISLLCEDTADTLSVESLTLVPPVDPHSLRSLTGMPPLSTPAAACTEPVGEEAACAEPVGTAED
# UniProt Q96JM3: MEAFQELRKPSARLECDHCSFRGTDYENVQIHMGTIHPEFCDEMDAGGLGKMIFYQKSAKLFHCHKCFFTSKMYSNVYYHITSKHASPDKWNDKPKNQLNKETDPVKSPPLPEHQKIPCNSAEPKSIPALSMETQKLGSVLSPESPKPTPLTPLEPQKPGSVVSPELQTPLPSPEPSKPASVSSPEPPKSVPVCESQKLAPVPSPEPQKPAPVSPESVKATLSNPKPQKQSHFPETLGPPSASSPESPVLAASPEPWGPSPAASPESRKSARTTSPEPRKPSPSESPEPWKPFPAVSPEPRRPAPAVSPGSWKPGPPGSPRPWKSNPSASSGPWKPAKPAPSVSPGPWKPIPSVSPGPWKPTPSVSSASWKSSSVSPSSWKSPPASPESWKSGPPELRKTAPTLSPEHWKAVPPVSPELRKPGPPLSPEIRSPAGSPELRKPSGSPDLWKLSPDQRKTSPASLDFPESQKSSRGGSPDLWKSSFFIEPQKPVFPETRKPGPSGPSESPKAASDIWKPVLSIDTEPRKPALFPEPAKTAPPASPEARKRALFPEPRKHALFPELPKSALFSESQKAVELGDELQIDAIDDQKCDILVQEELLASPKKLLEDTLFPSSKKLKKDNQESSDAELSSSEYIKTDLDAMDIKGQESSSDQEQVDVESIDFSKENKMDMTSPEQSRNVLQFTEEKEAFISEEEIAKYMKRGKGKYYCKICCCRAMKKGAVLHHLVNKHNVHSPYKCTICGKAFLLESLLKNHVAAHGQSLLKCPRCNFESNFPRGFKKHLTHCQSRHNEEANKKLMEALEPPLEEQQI
# UniProt Q8N5K1: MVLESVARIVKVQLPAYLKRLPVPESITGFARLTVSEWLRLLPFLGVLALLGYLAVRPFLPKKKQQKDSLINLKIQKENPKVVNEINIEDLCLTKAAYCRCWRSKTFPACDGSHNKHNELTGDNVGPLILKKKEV
# UniProt Q8N2M8: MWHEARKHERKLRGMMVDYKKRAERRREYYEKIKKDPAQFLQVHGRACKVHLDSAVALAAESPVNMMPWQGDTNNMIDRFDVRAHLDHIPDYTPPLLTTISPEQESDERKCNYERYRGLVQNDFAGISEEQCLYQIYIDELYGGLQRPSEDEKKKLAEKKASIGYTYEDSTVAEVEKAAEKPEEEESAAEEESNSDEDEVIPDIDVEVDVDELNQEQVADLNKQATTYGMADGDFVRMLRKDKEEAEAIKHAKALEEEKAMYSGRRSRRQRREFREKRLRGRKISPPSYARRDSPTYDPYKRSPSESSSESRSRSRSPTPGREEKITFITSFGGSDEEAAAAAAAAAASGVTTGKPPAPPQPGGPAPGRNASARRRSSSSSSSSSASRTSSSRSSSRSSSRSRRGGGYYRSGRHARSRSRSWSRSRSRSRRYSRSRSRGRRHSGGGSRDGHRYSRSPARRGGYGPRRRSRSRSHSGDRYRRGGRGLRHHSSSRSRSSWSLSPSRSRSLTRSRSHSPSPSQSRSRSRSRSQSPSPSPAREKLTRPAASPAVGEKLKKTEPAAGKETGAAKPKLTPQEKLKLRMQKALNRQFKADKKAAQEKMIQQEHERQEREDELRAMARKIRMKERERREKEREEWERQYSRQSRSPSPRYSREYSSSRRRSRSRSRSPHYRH
# UniProt P24386: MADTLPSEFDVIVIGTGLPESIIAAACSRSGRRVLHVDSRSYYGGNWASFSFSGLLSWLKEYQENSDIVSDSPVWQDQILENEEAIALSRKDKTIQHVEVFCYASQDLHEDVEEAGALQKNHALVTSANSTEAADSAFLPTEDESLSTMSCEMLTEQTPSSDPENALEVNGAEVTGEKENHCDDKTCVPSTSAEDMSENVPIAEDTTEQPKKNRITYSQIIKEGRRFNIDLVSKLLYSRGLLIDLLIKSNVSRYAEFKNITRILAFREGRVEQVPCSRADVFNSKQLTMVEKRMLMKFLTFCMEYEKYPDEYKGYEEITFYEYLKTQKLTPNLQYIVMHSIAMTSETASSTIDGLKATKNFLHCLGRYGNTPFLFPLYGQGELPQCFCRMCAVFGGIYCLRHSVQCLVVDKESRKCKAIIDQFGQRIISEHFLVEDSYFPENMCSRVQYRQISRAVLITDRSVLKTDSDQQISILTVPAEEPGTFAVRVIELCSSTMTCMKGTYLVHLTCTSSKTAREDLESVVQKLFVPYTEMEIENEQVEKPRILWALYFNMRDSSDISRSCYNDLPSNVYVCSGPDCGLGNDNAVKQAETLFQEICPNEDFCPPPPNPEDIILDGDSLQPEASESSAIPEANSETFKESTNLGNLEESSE
# UniProt O76031, whole entry, looked up: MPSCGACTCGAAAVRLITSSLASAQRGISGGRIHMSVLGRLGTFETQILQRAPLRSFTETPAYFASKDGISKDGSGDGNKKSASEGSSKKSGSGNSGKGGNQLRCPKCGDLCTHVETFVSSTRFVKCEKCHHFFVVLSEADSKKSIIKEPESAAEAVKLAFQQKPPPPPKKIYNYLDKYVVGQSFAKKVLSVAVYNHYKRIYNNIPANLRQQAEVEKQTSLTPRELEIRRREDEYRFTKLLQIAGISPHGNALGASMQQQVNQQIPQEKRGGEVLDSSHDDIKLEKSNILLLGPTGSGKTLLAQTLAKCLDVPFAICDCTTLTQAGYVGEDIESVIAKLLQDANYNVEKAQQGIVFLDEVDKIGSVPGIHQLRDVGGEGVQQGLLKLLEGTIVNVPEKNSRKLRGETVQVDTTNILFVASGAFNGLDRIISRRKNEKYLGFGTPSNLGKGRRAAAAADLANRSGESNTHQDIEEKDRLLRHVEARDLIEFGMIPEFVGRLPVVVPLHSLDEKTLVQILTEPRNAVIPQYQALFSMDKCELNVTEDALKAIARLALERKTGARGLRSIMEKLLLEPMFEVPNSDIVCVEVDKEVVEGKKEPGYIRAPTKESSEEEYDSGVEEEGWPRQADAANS
# UniProt Q5EBM0: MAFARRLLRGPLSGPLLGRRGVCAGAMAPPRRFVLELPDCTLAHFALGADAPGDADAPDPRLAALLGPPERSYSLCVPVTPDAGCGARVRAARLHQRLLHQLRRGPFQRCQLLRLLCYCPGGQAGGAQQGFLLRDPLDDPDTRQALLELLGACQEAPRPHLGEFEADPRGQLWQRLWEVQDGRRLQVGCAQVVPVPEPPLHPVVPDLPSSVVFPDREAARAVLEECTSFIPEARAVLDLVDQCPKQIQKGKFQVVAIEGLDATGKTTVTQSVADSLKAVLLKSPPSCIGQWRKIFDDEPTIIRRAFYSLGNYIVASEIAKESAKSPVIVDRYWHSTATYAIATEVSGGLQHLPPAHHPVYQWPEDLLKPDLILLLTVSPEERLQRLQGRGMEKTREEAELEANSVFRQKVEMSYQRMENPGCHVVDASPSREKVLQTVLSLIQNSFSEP
# This is one part of the list.
# What was measured:
# Test in all cases: log2 fold change, soluble protein after heating vs DMSO (PISA); higher = thermal stabilisation; K562 lysate, 10 uM; active = over 0.2 and 3.5 SD of the protein, either way, in both replicates (recomputed)
# [1] = compound: C1=CC=C(C=C1)[C@H](COC2=CC3=C(C=C2)NC(=O)N3)NC(=O)C4=CC=CN(C4=O)CC5=CC(=C(C=C5)F)F
# Summary of the method: (§1)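 Thermal stability, expressed as log-two fold change relative to solvent controls, is given from duplicates. Crude K562 extract in PBS pH 7.4 with 1 mM MgCl2, at 1 mg/mL protein, was treated with 10 μM compound for 30 min and heated in aliquots for 3 min across 48°C-58°C. After pooling, adjustment to 0.5% NP-40 at 4°C and centrifugation at 21,000xg for 90 min, supernatant protein was measured by TMTpro 16plex LC-MS/MS with channel sums equalised.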
# [2] = compound: CC1=C(SC2=C1C(=N[C@H](C3=NN=C(N32)C)CC(=O)N)C4=CC=C(C=C4)Cl)C
# Summary of the method: as §1
# [3] = compound: CC1=C2C(=CC=C1)N=C(N(C2=O)C3=CC=CC=C3C)CN4C=NC5=C(N=CN=C54)N
# Summary of the method: as §1
# [4] = compound: Cc1sc2c(c1C)C(c1ccc(Cl)cc1)=N[C@@H](CC(=O)OC(C)(C)C)c1nnc(C)n1-2
# Summary of the method: as §1
# [5] = compound: c1ccc([C@@H]2C[C@H]2NC2CCNCC2)cc1
# Summary of the method: as §1
Target,log2 fold change [1],log2 fold change [2],log2 fold change [3],log2 fold change [4],log2 fold change [5]
CLP1 (UniProt Q92989),inactive: -0.023,inactive: -0.002,inactive: -0.023,inactive: 0.026,inactive: -0.1
CHD1L (UniProt Q86WJ1),inactive: -0.012,inactive: 0.036,inactive: 0.037,inactive: -0.009,inactive: 0.052
CLNS1A (UniProt P54105),inactive: 0.02,inactive: 0.023,inactive: -0.011,inactive: -0.017,inactive: -0.022
CLIC2 (UniProt O15247),inactive: -0.022,inactive: 0.033,inactive: 0,inactive: 0.017,inactive: 0.029
CIAO2A (UniProt Q9H5X1),inactive: -0.049,inactive: 0.062,inactive: 0.023,inactive: -0.032,inactive: 0.064
CLCN3 isoform 2 (UniProt P51790),inactive: 0.033,inactive: 0.017,inactive: 0.053,inactive: -0.015,inactive: 0.033
CKMT1A (UniProt P12532),inactive: 0.049,inactive: -0.005,inactive: 0.002,inactive: 0.105,inactive: -0.018
CINP isoform 3 (UniProt Q9BW66),inactive: -0.016,inactive: -0.042,inactive: 0.039,inactive: -0.157,inactive: -0.145
CHORDC1 (UniProt Q9UHD1),inactive: 0.025,inactive: 0.006,inactive: -0.01,inactive: 0.017,inactive: 0.037
CHD8 (UniProt Q9HCK8),inactive: 0.019,inactive: 0.01,inactive: -0.08,inactive: 0.022,inactive: 0
CMSS1 (UniProt Q9BQ75),inactive: 0.035,inactive: -0.069,inactive: -0.017,inactive: -0.023,inactive: 0.106
CHURC1 isoform 2 (UniProt Q8WUH1),inactive: 0.045,inactive: -0.05,inactive: -0.046,inactive: -0.014,inactive: -0.063
CMAS (UniProt Q8NFW8),inactive: 0.025,inactive: 0.06,inactive: -0.011,inactive: 0.002,inactive: 0.02
CMBL (UniProt Q96DG6),inactive: -0.01,inactive: -0.011,inactive: -0.027,inactive: -0.041,inactive: -0.078
CHST11 (UniProt Q9NPF2),inactive: 0.037,inactive: -0.158,inactive: 0.075,inactive: -0.091,inactive: 0
CLIP1 isoform 1 (UniProt P30622),inactive: 0.04,inactive: -0.008,inactive: -0.002,inactive: -0.028,inactive: -0.019
CLIC1 (UniProt O00299),inactive: 0.019,inactive: 0.025,inactive: 0.001,inactive: -0.004,inactive: -0.021
CLEC16A (UniProt Q2KHT3),inactive: 0.011,inactive: -0.032,inactive: 0.046,inactive: -0.015,inactive: 0.058
CHCHD2P9 (UniProt Q5T1J5),inactive: 0.01,inactive: -0.01,inactive: -0.016,inactive: 0.015,inactive: 0.005
CMTM3 (UniProt Q96MX0),inactive: 0.058,inactive: -0.097,inactive: -0.018,inactive: 0.015,inactive: -0.024
CHMP2B (UniProt Q9UQN3),inactive: 0.012,inactive: -0.005,inactive: -0.032,inactive: 0.023,inactive: 0.023
CHUK (UniProt O15111),inactive: -0.02,inactive: 0.032,inactive: 0,inactive: -0.026,inactive: 0.015
CIRBP (UniProt Q14011),inactive: 0.016,inactive: 0.055,inactive: -0.014,inactive: 0.046,inactive: 0.015
CHAMP1 (UniProt Q96JM3),inactive: 0.053,inactive: 0.021,inactive: 0.002,inactive: 0.023,inactive: 0.034
CHMP3 (UniProt Q9Y3E7),inactive: -0.01,inactive: 0.052,inactive: -0.045,inactive: -0.065,inactive: -0.016
CLPP (UniProt Q16740),inactive: 0,inactive: -0.041,inactive: -0.032,inactive: -0.019,inactive: 0.047
CHCHD7 isoform 4 (UniProt Q9BUK0),inactive: 0.08,inactive: -0.052,inactive: 0.074,inactive: -0.071,inactive: -0.22

Target,log2 fold change [1],log2 fold change [2],log2 fold change [3],log2 fold change [4],log2 fold change [5]
CHCHD4 isoform 2 (UniProt Q8N4Q1),inactive: 0.04,inactive: -0.076,inactive: -0.101,inactive: -0.189,inactive: -0.168
CLCN3 (UniProt P51790),inactive: 0.094,inactive: 0.014,inactive: 0.061,inactive: 0.063,inactive: 0.017
CIC (UniProt I3L2J0),inactive: -0.03,inactive: -0.034,inactive: -0.109,inactive: 0.042,inactive: -0.02
CHMP4B (UniProt Q9H444),inactive: 0.061,inactive: -0.028,inactive: -0.036,inactive: 0.015,inactive: 0.006
CLPB isoform 2 (UniProt Q9H078),inactive: -0.031,inactive: -0.012,inactive: 0,inactive: 0.094,inactive: 0.079
CHCHD6 (UniProt Q9BRQ6),inactive: 0.078,inactive: 0.062,inactive: -0.01,inactive: 0.064,inactive: -0.101
CIAO3 (UniProt Q9H6Q4),inactive: -0.007,inactive: 0.037,inactive: 0.007,inactive: 0.019,inactive: -0.015
CISD2 (UniProt Q8N5K1),inactive: 0.022,inactive: -0.015,inactive: -0.003,inactive: -0.009,inactive: -0.017
CHMP5 (UniProt Q9NZZ3),inactive: 0.029,inactive: -0.002,inactive: 0.013,inactive: 0.007,inactive: 0
CLASRP (UniProt Q8N2M8),inactive: 0.066,inactive: 0.04,inactive: -0.013,inactive: -0.02,inactive: -0.009
CLASP2 isoform 3 (UniProt O75122),inactive: 0.002,inactive: -0.028,inactive: 0.079,inactive: -0.003,inactive: -0.061
CLIC4 (UniProt Q9Y696),inactive: 0.003,inactive: 0.029,inactive: 0.003,inactive: 0.01,inactive: -0.059
CHM (UniProt P24386),inactive: -0.035,inactive: 0.11,inactive: 0.158,inactive: -0.05,inactive: -0.015
CLPX (UniProt O76031),inactive: -0.073,inactive: -0.009,inactive: -0.027,inactive: 0.035,inactive: 0.021
CLINT1 (UniProt Q14677),inactive: 0.019,inactive: -0.003,inactive: -0.106,inactive: -0.12,inactive: -0.078
CLCN7 (UniProt P51798),inactive: 0.04,inactive: 0.001,inactive: -0.002,inactive: 0.003,inactive: 0
CHTF8 (UniProt P0CG13),inactive: -0.116,inactive: 0.14,–,inactive: 0.049,inactive: 0.033
CLEC16A isoform 2 (UniProt Q2KHT3),inactive: -0.035,inactive: 0.137,–,inactive: 0.098,–
CLUL1 (UniProt Q15846),inactive: -0.204,inactive: -0.205,inactive: 0.026,–,inactive: -0.042
"CLUH, A0A494C0R8",inactive: 0.014,inactive: 0.118,inactive: 0.133,inactive: -0.116,inactive: 0.132
CHEK2 (UniProt O96017),inactive: -0.02,inactive: -0.041,inactive: -0.016,inactive: 0.006,inactive: 0.014
CLN3 (UniProt Q13286),inactive: 0.053,inactive: -0.092,–,inactive: -0.001,–
CKM (UniProt P06732),inactive: 0.008,inactive: -0.027,inactive: -0.109,inactive: -0.169,inactive: 0
CLIP1 isoform 2 (UniProt P30622),inactive: 0.11,inactive: -0.03,–,inactive: 0.009,inactive: -0.002
CHMP4A (UniProt H0YIN6),inactive: 0.032,inactive: 0.166,–,inactive: -0.222,inactive: -0.12
CMPK2 (UniProt Q5EBM0),inactive: 0.008,inactive: 0.091,inactive: -0.024,inactive: 0.039,inactive: -0.098
CIB1 (UniProt Q99828),inactive: -0.128,active: -0.272,inactive: -0.039,inactive: 0.023,inactive: 0.03

# Reprinted from the entries so far (14 entries):
Target,log2 fold change [1],log2 fold change [2],log2 fold change [3],log2 fold change [4],log2 fold change [5]
CHMP2B (UniProt Q9UQN3),inactive: 0.012,inactive: -0.005,inactive: -0.032,inactive: 0.023,inactive: 0.023
CHUK (UniProt O15111),inactive: -0.02,inactive: 0.032,inactive: 0,inactive: -0.026,inactive: 0.015
CIRBP (UniProt Q14011),inactive: 0.016,inactive: 0.055,inactive: -0.014,inactive: 0.046,inactive: 0.015
CHAMP1 (UniProt Q96JM3),inactive: 0.053,inactive: 0.021,inactive: 0.002,inactive: 0.023,inactive: 0.034
CHMP3 (UniProt Q9Y3E7),inactive: -0.01,inactive: 0.052,inactive: -0.045,inactive: -0.065,inactive: -0.016
CLPP (UniProt Q16740),inactive: 0,inactive: -0.041,inactive: -0.032,inactive: -0.019,inactive: 0.047
CHCHD7 isoform 4 (UniProt Q9BUK0),inactive: 0.08,inactive: -0.052,inactive: 0.074,inactive: -0.071,inactive: -0.22
CHCHD4 isoform 2 (UniProt Q8N4Q1),inactive: 0.04,inactive: -0.076,inactive: -0.101,inactive: -0.189,inactive: -0.168
CLCN3 (UniProt P51790),inactive: 0.094,inactive: 0.014,inactive: 0.061,inactive: 0.063,inactive: 0.017
CIC (UniProt I3L2J0),inactive: -0.03,inactive: -0.034,inactive: -0.109,inactive: 0.042,inactive: -0.02
CHMP4B (UniProt Q9H444),inactive: 0.061,inactive: -0.028,inactive: -0.036,inactive: 0.015,inactive: 0.006
CLPB isoform 2 (UniProt Q9H078),inactive: -0.031,inactive: -0.012,inactive: 0,inactive: 0.094,inactive: 0.079
CHCHD6 (UniProt Q9BRQ6),inactive: 0.078,inactive: 0.062,inactive: -0.01,inactive: 0.064,inactive: -0.101
CIAO3 (UniProt Q9H6Q4),inactive: -0.007,inactive: 0.037,inactive: 0.007,inactive: 0.019,inactive: -0.015
